No constants are given. Whether binding was seen depends on the method and setting. Some binding calls cover weakened binding; strength is not graded here. For some assays here: Tags and fused reporters may be left off the sequences shown.

In assay [1] the target is T1, human MSR1 expressed from the CD204/MSR1 cDNA ORF clone, N-His tag expression plasmid, in HEK293 and CHO-K1 cells (human) (UniProt P21757).
T1 sequence: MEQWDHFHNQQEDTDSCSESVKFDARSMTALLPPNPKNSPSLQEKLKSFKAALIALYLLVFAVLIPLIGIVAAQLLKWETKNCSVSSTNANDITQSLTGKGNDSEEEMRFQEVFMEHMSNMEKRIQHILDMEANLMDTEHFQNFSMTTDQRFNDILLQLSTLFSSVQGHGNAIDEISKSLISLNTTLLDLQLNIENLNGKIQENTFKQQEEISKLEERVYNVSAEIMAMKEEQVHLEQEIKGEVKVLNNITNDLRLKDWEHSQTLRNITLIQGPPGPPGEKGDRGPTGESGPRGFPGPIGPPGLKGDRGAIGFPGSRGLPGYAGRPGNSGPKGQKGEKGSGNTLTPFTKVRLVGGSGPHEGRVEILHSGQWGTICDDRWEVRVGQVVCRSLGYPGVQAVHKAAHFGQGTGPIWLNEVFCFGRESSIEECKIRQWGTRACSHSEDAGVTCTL
Briefly: flow cytometry on cells; uptake of HFt-AF488 (50 μg/ml) within 30 min at 37 °C by HEK293 (or CHO-K1) cells 24 h after transfection with an MSR1 plasmid or a control plasmid; confocal microscopy beside it; only the binder purified.

Assay [2] deals with T2, full-length (wild-type) MSR1 expressed from p-MSR1-mCherry2 in HEK293 cells (human) (UniProt P21757).
T2 sequence: T1 sequence
Described as above.

As to “human heavy chain ferritin conjugated to Alexa Fluor 488 (HFt-AF488) (from UniProt P02794 1-183)”, the binding result in assay [1] and in assay [2] was “binds” throughout.
